Source: article doi:10.64898/2025.12.05.692556

Key:
Assay in all cases: affinity purification with mass spectrometry
[1] = target: HA-tagged full-length Usutu virus (USUV) non-structural protein 5 (NS5) (Usutu virus)
[2] = target: HA-tagged full-length Zika virus (ZIKV) non-structural protein 5 (NS5) (Zika virus)
[3] = target: HA-tagged full-length West Nile virus (WNV) non-structural protein 5 (NS5) (West Nile virus)

Measured: binding

B1: Sideroflexin-1 (SFXN1) (protein, UniProt Q9H9B4 1-322)
chain: MSGELPPNINIKEPRWDQSTFIGRANHFFTVTDPRNILLTNEQLESARKIVHDYRQGIVPPGLTENELWRAKYIYDSAFHPDTGEKMILIGRMSAQVPMNMTITGCMMTFYRTTPAVLFWQWINQSFNAVVNYTNRSGDAPLTVNELGTAYVSATTGAVATALGLNALTKHVSPLIGRFVPFAAVAAANCINIPLMRQRELKVGIPVTDENGNRLGESANAAKQAITQVVVSRILMAAPGMAIPPFIMNTLEKKAFLKRFPWMSAPIQVGLVGFCLVFATPLCCALFPQKSSMSVTSLEAELQAKIQESHPELRRVYFNKGL
binds: all assays above

These are yes or no findings as the source states them, for the method shown. Binding seen in cells or lysates may run through a third protein. A yes stands for co-enrichment or nearness to the bait. Other partners may have been found.
